Assay results as given in patent publication US20070015132A1 (priority 2001, published 2007).
For at least one compound, name, drawing or mass did not settle the structure.

Key:
[1] = system: Mouse fibroblast cells (ATCC CRL-10225); assay type: cell-based
[2] = system: hybridoma cell line; conditions: cited from earlier work
[3] = system: murine hybridoma (ATCC CRL-1606); assay type: cell-based

| Structure (SMILES) | effect on medium acidification rate [1] | concentration optimal for production of monoclonal antibodies [2] | delay of cell death [2] | resistance to cell death [2] | specific productivity of MAb [2] | ATP production (qATP, Model 2) versus control [3] | L/G ratios (Model 2) versus control [3] | amounts of carbon flux through the TCA cycle (Model 2) [3] | glucose rates compared to the control culture [3] | glucose uptake rates, rank among concentration groups [3] | lactate production compared to the control culture [3] | lactate-to-glucose (L/G) ratio from measured rates compared to the control [3] | percent ATP from the TCA cycle (Model 2), shift versus control [3] | percent flux through the TCA cycle (Model 2) versus control [3] |
| --- | --- | --- | --- | --- | --- | --- | --- | --- | --- | --- | --- | --- | --- | --- |
| NN [hydrazine] | inhibit | – | – | – | – | – | – | – | – | – | – | – | – | – |
| CO[C@H]1C[C@@H]2CC[C@@H](C)[C@@](O)(O2)C(=O)C(=O)N2CCCC[C@H]2C(=O)O[C@H]([C@H](C)C[C@@H]2CC[C@@H](O)[C@H](OC)C2)CC(=O)[C@H](C)/C=C(\C)[C@@H](O)[C@@H](OC)C(=O)[C@H](C)C[C@H](C)/C=C/C=C/C=C/1C [rapamycin] | – | 100 nM | approximately one | increases | doubled | increased | significantly lower | relatively increased | significantly different | largest | significantly different | significantly different | no such shifts were significant | significant increase |
